From the supplement of paper PMC6078165

System: Hs578T
Test: relative JC-1 red fluorescence (viability) vs pre-drug, coculture with fibroblast (fraction); higher = more viable cancer cells
Description: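 JC-1 labelled TNBC cells cocultured 1:1 (1,500 cells each) with CellTrace Violet stained primary or stromal fibroblasts in 384-well plates in FluoroBrite medium, treated with one of 42 anticancer drugs at 0.1, 1, 10 or 100 uM. JC-1 red fluorescence (mitochondrial integrity in cancer cells only) was read by plate reader every 8 h for 72 h. Values are normalised to each well's pre-drug value. The stock of one drug was tenfold lower, so its dose labels may be too high.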

O=NN(CCCl)C(=O)NC1CCCCC1 [Lomustine]
relative JC-1 red fluorescence
Settings | 8 h | 16 h | 24 h | 32 h | 40 h | 48 h | 56 h | 64 h | 72 h
0.1 µM | 0.9219 | 0.838 | 0.788 | 0.748 | 0.673 | 0.631 | 0.606 | 0.56 | 0.547
1 µM | 0.891 | 0.763 | 0.704 | 0.663 | 0.611 | 0.57 | 0.541 | 0.499 | 0.475

relative JC-1 red fluorescence
Settings | 8 h | 16 h | 24 h | 32 h | 40 h | 48 h | 56 h | 64 h | 72 h
0.1 µM, coculture fibroblast: C12385 | 0.8004 | 0.7301 | 0.698 | 0.601 | 0.538 | 0.508 | 0.483 | 0.476 | 0.47
0.1 µM, coculture fibroblast: H6013 | 0.8398 | 0.82943 | 0.808 | 0.79672 | 0.776 | 0.771 | 0.758 | 0.753 | 0.73
0.1 µM, coculture fibroblast: H6019 | 0.798 | 0.732 | 0.711 | 0.61 | 0.572 | 0.542 | 0.515 | 0.495 | 0.469
0.1 µM, coculture fibroblast: H6076 | 0.866 | 0.812 | 0.785 | 0.778 | 0.743 | 0.754 | 0.745 | 0.749 | 0.751
0.1 µM, coculture fibroblast: H6231 | 0.867 | 0.8048 | 0.789 | 0.77 | 0.717 | 0.704 | 0.673 | 0.661 | 0.658
0.1 µM, coculture fibroblast: HADF | 0.851 | 0.796 | 0.733 | 0.679 | 0.659 | 0.642 | 0.622 | 0.62 | 0.611
0.1 µM, coculture fibroblast: HCFa | 0.802 | 0.7294 | 0.678 | 0.6225 | 0.568 | 0.542 | 0.523 | 0.515 | 0.493
0.1 µM, coculture fibroblast: HCPF | 0.906 | 0.818 | 0.756 | 0.712 | 0.653 | 0.633 | 0.615 | 0.584 | 0.566
0.1 µM, coculture fibroblast: HHSteC | 0.861 | 0.812 | 0.756 | 0.703 | 0.656 | 0.626 | 0.605 | 0.589 | 0.5695
0.1 µM, coculture fibroblast: HMF | 0.8678 | 0.807 | 0.755 | 0.735 | 0.6699 | 0.6496 | 0.627 | 0.606 | 0.5955
0.1 µM, coculture fibroblast: HPFa | 0.885 | 0.826 | 0.769 | 0.713 | 0.683 | 0.652 | 0.619 | 0.596 | 0.561
0.1 µM, coculture fibroblast: HUF | 0.856 | 0.755 | 0.771 | 0.663 | 0.601 | 0.583 | 0.556 | 0.561 | 0.562
0.1 µM, coculture fibroblast: Hs27A | 0.875 | 0.801 | 0.745 | 0.703 | 0.66 | 0.648 | 0.622 | 0.609 | 0.567
0.1 µM, coculture fibroblast: Hs343T | 0.882 | 0.799 | 0.76 | 0.746 | 0.687 | 0.671 | 0.651 | 0.637 | 0.639
0.1 µM, coculture fibroblast: WS1 | 0.7798 | 0.71 | 0.691 | 0.595 | 0.547 | 0.531 | 0.504 | 0.509 | 0.513
1 µM, coculture fibroblast: C12385 | 0.831 | 0.728 | 0.6725 | 0.5805 | 0.5077 | 0.4753 | 0.447 | 0.435 | 0.426
1 µM, coculture fibroblast: H6013 | 0.8745 | 0.804 | 0.765 | 0.736 | 0.696 | 0.681 | 0.661 | 0.663 | 0.638
1 µM, coculture fibroblast: H6019 | 0.75 | 0.648 | 0.64 | 0.554 | 0.523 | 0.498 | 0.471 | 0.453 | 0.427
1 µM, coculture fibroblast: H6076 | 0.88 | 0.837 | 0.812 | 0.8066 | 0.785 | 0.797 | 0.782 | 0.789 | 0.787
1 µM, coculture fibroblast: H6231 | 0.912 | 0.83 | 0.739 | 0.696 | 0.631 | 0.599 | 0.546 | 0.517 | 0.489
1 µM, coculture fibroblast: HADF | 0.874 | 0.774 | 0.7156 | 0.657 | 0.601 | 0.569 | 0.532 | 0.518 | 0.493
1 µM, coculture fibroblast: HCFa | 0.847 | 0.76 | 0.694 | 0.64 | 0.576 | 0.553 | 0.528 | 0.51 | 0.474
1 µM, coculture fibroblast: HCPF | 0.9036 | 0.8096 | 0.7619 | 0.726 | 0.682 | 0.653 | 0.636 | 0.599 | 0.582
1 µM, coculture fibroblast: HHSteC | 0.8806 | 0.7942 | 0.741 | 0.6904 | 0.631 | 0.605 | 0.579 | 0.554 | 0.519
1 µM, coculture fibroblast: HMF | 0.847 | 0.7597 | 0.704 | 0.682 | 0.624 | 0.6 | 0.561 | 0.542 | 0.528
1 µM, coculture fibroblast: HPFa | 0.892 | 0.816 | 0.731 | 0.661 | 0.605 | 0.555 | 0.506 | 0.47 | 0.426
1 µM, coculture fibroblast: HUF | 0.855 | 0.755 | 0.7 | 0.595 | 0.528 | 0.492 | 0.4546 | 0.4441 | 0.4356
1 µM, coculture fibroblast: Hs27A | 0.887 | 0.8321 | 0.7661 | 0.7286 | 0.672 | 0.654 | 0.611 | 0.606 | 0.561
1 µM, coculture fibroblast: Hs343T | 0.911 | 0.803 | 0.7287 | 0.7043 | 0.629 | 0.608 | 0.56 | 0.534 | 0.536
1 µM, coculture fibroblast: WS1 | 0.786 | 0.705 | 0.641 | 0.543 | 0.485 | 0.467 | 0.439 | 0.438 | 0.4374

Values are relative to the signal before dosing, not to a vehicle control; the signal also falls without drug.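 Labels refer to human fibroblasts, largely primary: uterine (C12385, HUF), lung (H6013), bone (Hs27A), adrenal (HADF), skin (WS1), plus mammary HMF and breast cancer-associated Hs343T. Cancer lines are basal-like or mesenchymal-like triple-negative breast cancer. The paper counts as hits responses shifting over 3x the replicate standard deviation. The tissue of the other fibroblasts is not given here.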
